Results are given in words; binding and its absence hold for the method and conditions named. Binding seen in cells or lysates may run through a third protein. Some results given as binding are weak or reduced against the parent protein; the word gives no strength. For part of these data: Where a sequence is shown, tags or fusion partners need not be part of it.
Experiments:
Test in all cases: co-IP; tagged proteins co-expressed in 293T cells; lysis buffer 10 mM HEPES pH 7.6, 250 mM NaCl, 0.1% NP40, 5 mM EDTA; IP with tag antibody and protein-G PLUS-agarose, 30 min at 4 °C; blot with tag antibodies; with or without co-expressed HA-Yap or Myc-NICD1
HA-mYap (mouse) = HA-mYap (mouse) (UniProt P46938)
[1] = target: T1, SBNO1-Myc (human Strawberry Notch 1, Myc-tagged) (human) (UniProt A3KN83)
T1 sequence: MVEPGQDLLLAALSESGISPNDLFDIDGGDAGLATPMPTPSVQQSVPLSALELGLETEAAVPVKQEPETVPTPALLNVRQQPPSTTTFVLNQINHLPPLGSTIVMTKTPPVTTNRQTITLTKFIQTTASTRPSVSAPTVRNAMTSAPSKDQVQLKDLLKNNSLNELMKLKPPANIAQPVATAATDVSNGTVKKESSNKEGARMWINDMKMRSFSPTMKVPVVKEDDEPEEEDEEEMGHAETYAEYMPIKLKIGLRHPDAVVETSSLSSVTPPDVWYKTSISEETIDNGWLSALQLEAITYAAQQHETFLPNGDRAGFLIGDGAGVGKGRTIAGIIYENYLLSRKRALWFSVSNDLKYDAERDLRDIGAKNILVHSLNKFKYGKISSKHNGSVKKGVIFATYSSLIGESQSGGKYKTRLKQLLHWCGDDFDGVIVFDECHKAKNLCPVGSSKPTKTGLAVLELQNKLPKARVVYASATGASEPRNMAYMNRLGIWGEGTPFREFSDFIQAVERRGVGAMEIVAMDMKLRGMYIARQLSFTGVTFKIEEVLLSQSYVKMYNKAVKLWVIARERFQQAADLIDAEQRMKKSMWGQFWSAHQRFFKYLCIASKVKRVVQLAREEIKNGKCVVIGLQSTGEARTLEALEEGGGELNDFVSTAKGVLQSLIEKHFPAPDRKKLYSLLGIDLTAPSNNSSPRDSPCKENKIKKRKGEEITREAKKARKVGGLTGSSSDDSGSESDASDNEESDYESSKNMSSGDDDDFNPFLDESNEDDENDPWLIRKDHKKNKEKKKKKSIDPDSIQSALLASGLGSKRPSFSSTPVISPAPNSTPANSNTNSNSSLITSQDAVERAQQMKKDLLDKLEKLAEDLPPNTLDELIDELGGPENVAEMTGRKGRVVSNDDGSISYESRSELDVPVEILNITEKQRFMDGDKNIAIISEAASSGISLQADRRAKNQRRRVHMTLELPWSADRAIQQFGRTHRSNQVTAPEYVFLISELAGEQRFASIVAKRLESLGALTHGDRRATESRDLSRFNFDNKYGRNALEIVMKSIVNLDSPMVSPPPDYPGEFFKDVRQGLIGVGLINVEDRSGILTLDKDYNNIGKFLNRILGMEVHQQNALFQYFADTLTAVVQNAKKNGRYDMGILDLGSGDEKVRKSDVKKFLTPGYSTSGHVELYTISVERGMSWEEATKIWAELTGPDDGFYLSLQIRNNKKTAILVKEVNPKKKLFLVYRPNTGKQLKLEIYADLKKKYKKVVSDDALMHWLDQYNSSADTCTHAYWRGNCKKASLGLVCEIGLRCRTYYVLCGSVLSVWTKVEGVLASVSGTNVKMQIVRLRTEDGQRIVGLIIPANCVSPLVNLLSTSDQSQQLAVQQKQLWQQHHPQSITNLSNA

Amino acid sequences for entries named in this document (tags omitted).
UniProt P46938: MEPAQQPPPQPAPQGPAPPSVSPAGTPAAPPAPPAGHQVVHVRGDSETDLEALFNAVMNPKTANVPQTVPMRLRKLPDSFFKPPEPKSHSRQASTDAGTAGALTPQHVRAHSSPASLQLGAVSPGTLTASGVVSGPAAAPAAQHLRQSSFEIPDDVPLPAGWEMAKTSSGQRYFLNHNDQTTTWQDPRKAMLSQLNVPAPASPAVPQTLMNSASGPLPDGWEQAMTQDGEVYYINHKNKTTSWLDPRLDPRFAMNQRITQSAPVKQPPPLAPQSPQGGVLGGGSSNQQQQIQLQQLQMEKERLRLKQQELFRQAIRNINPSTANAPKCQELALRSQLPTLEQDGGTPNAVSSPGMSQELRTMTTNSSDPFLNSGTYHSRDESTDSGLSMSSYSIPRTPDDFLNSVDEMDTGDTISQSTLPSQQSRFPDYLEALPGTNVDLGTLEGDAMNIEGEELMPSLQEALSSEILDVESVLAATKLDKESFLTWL
UniProt Q62296: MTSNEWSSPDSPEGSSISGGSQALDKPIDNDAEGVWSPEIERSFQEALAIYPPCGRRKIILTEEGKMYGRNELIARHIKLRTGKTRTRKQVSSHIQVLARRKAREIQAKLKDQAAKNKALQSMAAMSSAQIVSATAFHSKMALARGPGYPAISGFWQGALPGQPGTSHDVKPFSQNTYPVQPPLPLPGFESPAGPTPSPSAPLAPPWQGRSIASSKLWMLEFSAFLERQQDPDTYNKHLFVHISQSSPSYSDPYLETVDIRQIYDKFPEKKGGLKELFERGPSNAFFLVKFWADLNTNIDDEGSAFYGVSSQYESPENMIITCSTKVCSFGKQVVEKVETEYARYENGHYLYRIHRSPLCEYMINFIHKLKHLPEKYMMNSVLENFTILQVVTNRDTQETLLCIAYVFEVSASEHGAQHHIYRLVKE
UniProt Q08943: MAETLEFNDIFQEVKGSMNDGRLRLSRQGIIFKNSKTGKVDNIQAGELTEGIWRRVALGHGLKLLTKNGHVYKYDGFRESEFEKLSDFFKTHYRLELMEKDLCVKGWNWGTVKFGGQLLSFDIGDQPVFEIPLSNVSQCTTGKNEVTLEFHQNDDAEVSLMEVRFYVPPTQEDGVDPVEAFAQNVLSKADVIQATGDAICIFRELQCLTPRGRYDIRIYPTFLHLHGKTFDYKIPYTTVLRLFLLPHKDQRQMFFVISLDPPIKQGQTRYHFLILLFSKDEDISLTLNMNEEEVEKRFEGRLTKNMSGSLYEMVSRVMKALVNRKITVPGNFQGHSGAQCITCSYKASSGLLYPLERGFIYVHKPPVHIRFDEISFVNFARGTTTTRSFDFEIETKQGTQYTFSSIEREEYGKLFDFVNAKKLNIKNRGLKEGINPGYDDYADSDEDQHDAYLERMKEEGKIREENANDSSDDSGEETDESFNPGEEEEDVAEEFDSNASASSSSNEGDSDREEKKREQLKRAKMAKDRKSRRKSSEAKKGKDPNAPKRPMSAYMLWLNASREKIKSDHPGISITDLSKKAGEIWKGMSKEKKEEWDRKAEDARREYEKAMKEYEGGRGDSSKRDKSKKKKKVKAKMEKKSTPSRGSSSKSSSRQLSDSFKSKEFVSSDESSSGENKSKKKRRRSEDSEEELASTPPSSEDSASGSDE

[2] = target: T2, SBNO1-V5 (human Strawberry Notch 1, V5-tagged) (human) (UniProt A3KN83)
T2 sequence: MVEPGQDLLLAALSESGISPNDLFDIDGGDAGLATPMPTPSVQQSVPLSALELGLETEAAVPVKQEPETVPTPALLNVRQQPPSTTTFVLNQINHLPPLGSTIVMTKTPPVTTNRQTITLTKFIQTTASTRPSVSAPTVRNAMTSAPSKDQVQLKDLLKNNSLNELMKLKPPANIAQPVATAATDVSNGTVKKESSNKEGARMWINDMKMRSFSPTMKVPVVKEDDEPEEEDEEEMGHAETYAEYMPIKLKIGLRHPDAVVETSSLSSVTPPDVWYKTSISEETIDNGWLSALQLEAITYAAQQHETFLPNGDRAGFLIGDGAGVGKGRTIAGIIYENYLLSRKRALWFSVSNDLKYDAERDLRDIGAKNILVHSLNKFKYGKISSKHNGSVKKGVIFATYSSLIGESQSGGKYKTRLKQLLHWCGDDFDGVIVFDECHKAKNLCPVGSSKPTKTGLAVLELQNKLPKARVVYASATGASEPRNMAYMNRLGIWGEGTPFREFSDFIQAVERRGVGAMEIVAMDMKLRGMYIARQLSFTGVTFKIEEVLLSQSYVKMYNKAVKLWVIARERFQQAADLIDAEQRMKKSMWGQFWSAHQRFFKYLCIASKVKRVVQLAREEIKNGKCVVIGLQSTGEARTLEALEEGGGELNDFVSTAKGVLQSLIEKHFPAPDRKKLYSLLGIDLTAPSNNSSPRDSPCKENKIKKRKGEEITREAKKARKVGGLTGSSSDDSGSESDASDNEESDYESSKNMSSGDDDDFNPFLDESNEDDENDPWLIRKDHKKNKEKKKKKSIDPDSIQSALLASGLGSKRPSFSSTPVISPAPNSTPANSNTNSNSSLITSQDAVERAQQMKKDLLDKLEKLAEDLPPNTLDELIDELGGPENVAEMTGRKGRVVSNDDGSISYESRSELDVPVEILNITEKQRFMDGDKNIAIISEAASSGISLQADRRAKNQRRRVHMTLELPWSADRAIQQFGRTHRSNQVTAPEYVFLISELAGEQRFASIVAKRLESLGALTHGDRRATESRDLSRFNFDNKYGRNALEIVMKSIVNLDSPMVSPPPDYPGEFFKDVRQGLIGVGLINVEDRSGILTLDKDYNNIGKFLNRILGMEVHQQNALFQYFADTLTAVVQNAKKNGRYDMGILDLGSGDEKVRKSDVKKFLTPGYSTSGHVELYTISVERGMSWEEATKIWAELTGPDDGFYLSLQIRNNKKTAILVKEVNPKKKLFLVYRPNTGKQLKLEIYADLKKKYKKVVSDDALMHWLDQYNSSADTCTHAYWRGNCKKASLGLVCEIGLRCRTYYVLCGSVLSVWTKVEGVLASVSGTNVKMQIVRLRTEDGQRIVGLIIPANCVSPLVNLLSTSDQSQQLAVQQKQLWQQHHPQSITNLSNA

[3] = target: T3, GFP-SBNO1 (human Strawberry Notch 1, GFP-tagged) (human) (UniProt A3KN83)
T3 sequence: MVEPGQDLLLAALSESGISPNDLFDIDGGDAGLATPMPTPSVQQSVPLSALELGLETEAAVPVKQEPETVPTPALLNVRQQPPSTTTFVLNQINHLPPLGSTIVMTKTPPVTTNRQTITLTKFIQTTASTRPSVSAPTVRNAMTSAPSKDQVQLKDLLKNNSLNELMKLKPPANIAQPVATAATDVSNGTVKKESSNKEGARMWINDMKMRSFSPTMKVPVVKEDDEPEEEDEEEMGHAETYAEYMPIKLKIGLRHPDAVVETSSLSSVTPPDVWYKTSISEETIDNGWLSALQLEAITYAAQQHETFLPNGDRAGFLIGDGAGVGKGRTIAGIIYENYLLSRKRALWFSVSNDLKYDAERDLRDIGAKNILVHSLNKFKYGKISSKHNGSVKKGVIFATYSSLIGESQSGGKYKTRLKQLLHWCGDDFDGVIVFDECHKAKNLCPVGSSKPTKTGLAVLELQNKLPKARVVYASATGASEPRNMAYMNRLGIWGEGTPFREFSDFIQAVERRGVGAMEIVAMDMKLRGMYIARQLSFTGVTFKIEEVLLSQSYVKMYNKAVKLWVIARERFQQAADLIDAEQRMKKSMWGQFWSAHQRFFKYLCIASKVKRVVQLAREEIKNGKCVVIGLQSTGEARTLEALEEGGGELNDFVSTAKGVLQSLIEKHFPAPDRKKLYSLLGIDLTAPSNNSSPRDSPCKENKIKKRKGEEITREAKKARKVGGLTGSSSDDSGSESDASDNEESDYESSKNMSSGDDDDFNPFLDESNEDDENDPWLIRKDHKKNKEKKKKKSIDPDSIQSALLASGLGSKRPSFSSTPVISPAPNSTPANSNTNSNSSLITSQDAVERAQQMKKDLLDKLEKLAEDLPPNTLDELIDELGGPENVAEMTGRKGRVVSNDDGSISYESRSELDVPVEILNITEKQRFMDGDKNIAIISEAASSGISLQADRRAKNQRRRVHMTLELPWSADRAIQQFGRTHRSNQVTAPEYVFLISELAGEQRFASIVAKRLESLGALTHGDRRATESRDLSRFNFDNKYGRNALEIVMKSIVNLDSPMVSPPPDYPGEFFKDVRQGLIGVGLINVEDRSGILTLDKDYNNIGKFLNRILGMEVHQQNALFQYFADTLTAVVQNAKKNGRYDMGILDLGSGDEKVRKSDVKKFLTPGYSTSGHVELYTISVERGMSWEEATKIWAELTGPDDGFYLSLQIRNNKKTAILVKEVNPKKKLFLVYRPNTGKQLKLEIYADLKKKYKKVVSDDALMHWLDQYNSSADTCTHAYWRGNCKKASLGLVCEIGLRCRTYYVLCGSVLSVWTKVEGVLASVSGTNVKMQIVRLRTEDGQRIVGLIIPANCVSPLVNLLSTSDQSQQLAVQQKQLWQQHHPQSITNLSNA

FLAG-mTead4 (mouse) = FLAG-mTead4 (mouse) (UniProt Q62296)

Row | binding (HA-mYap (mouse)) | binding [1] | binding [2] | binding [3] | binding (FLAG-mTead4 (mouse)) | Substance
1 | binds | binds | binds |  |  | FLAG-mTead4 (from UniProt Q62296 1-427)
2 |  |  | binds | binds | binds | Myc-mSsrp1 (from UniProt Q08943 1-708)

From publication PMC5389439
